# In the supplement of paper PMC8728848:
# The other results are listed elsewhere or left out.
# Tests used:
# Assay in all cases: glycan array binding signal (z-score within array); higher = stronger binding
# Settings in all cases: glycan notation: IUPAC condensed, linker removed; mutation: R276L
# [1] = biological target: Neu5Gc(a2-8)Neu5Gc(a2-3)Gal(b1-4)GlcNAc(b1-3)Gal(b1-4)GlcNAc
# Method in brief: (§1)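 The binding signal is a Z-score computed within each array. Data were drawn from 3228 arrays in the Consortium for Functional Glycomics database, restricted to those with a known protein sequence. Scores were averaged over arrays of the same protein sequence at different concentrations or buffers, and over linkers, and negative values can be taken as non-binding.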
# [2] = biological target: Neu5Gc(a2-8)Neu5Gc(a2-6)Gal(b1-4)GlcNAc
# Method in brief: as §1
# [3] = biological target: Neu5Gc(b2-6)Gal(b1-4)GlcNAc
# Method in brief: as §1
binder,measurement,setting,value
"SUN4P (Saccharomyces cerevisiae), P53616 (protein) MGSSHHHHHHSSGLVPRGSHNGSIYGDLADFSGPYEKFEDGTIPCGQFPSGQGVIPISWLDEGGWSGVENTDTSTGGSCKEGSYCSYACQPGMSKTQWPSDQPSDGRSIGGLLCKDGYLYRSNTDTDYLCEWGVDAAYVVSELSNDVAICLTDYPGTENMVIPTYVQAGDSLPLTVVDQDTYYTWQGLKTSAQYYVNNAGISVEDACVWGSSSSGVGNWAPLNFGAGSSDGVAYLSLIPNPNNGNALNFNVKIVAADDSSTVNGECIYENGSFSGGSDGCTVSVTAGKAKFVLYN",glycan array binding signal (z-score),[1],-0.229
same,glycan array binding signal (z-score),[2],-0.041
same,glycan array binding signal (z-score),[3],-0.154
